Results as given in PubChem BioAssay AID588590 (National Center for Advancing Translational Sciences (NCATS), 2011).
Screen size: about 390,000 compounds; about 4,000 (1%) were called active. Inconclusive means that the source gave no clear call. Such entries were picked first, then a sample of the others. The call rests on the fitted dose curve; in most records, active means well fitted inhibition curve with a large enough effect; inconclusive means small, poorly fitted or top-dose-only effect, or another doubt; inactive means no such curve, though single readings can be large or run the other way. Where the call is inconclusive, the potency comes from a doubtful curve fit.

Amino acid sequences for entries named in this document (tags omitted). A change or cut given only in a name is not applied to a line headed by its entry.
UniProt Q9UNA4: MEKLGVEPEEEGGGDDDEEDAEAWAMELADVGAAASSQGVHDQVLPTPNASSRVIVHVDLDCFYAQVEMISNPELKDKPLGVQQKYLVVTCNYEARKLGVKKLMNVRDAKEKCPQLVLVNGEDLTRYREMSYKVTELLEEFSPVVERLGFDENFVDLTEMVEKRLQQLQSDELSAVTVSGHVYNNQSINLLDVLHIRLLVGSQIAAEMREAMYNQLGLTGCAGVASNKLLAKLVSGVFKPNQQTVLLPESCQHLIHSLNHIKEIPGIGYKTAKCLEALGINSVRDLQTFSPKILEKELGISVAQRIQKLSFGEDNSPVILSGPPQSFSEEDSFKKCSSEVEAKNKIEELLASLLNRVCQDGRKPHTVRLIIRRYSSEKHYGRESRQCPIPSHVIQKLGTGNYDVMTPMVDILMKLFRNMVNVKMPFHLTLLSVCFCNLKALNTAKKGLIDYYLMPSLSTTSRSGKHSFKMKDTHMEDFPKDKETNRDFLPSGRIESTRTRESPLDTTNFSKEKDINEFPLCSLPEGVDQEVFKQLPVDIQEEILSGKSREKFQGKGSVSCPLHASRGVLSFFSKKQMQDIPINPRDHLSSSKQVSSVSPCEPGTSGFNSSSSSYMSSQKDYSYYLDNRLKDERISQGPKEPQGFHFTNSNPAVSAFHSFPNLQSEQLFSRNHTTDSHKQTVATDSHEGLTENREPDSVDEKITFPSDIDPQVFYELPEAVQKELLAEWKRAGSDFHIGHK

Molecular target: DNA polymerase iota (Homo sapiens) (UniProt Q9UNA4)
Assay: qHTS for Inhibitors of Polymerase Iota
Conditions: Pol iota fluorescent replication assay, 10 min; series mostly up to 115 µM
In short: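 Pol iota at 10 nM preincubated 15 min with compounds at room temperature; reaction started with fluorescent substrate, 50 nM final. Fluorescence read kinetically at 0 and 10 min; buffer-only wells as negative control.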
Potency means the concentration at half of the fitted maximal effect.

SMILES | Potency
Nc1nc2ncc(CNc3ccc(C(=O)NC(CCC(=O)O)C(=O)O)cc3)nc2c(=O)[nH]1 (stereo not given) | inconclusive: 28.2 µM [inhibitor, partial curve, poor fit]
O=C(O)c1ccc(NC2=C(Cl)C(=O)c3ccccc3C2=O)cc1 | inconclusive: 17.8 µM [inhibitor, partial curve, poor fit]
CCc1ccc(-c2[nH]nc3nc(-c4ccc(OC)cc4)cc(C(=O)NCCCOC)c23)cc1 | inconclusive: 79.4 µM [inhibitor, single point]
Fc1ccc(/C=C/c2nccc3ccccc23)cc1 | inactive
O=C1NN(c2ccccc2)C(=O)/C1=C\c1cccn1-c1ccc(Cl)c([N+](=O)[O-])c1 | inconclusive: 11.2 µM [inhibitor, full curve, poor fit]
CNC(=S)N/N=C/c1ccc(C(C)C)cc1 | inconclusive: 14.1 µM [inhibitor, single point]
CC(=O)Nc1ccc(-n2c(CCC(=O)O)ccc2-c2ccc(Br)cc2)cc1 | inconclusive: 70.8 µM [inhibitor, partial curve]
COc1ccccc1CNC(=O)CCC(=O)n1ncc2cc(C)ccc21 | inconclusive: 17.8 µM [inhibitor, full curve, poor fit]
CCOC(=O)C1=CNS(=O)(=O)NC1c1ccc(C[C@H](NC(=O)CNC(=O)CCc2ccccc2)C(N)=O)cc1 (stereo not given in full) | inconclusive: 79.4 µM [inhibitor, single point]
Cc1ccccc1C(=O)NC(CC(C)C)C(=O)OCc1cc(=O)n2cc(Br)ccc2n1 (stereo not given) | inactive
Cc1ccc(CSCC2Nc3ccc(C(=O)N4CCN(c5ccc(F)cc5)CC4)cc3NC2=O)cc1 (stereo not given) | inconclusive: 56.2 µM [inhibitor, partial curve, poor fit]
CCn1c(=O)n(-c2ccc(F)cc2)c(=O)c2sc3ccccc3c21 | inactive
CCOC(=O)c1ccc(NC(=S)N(CCCN2CCCC2)Cc2ccco2)cc1 | inactive
COCCCNc1nc2c(-c3ccc(C)cc3)nnn2c2ccccc12 | inconclusive: 44.7 µM [inhibitor, partial curve, poor fit]
CCCc1cc(=O)[nH]c(SCC(=O)Nc2c(C)n(C)n(-c3ccccc3)c2=O)n1 | inconclusive: 89.1 µM [inhibitor, single point]
COc1ccc(N2C(=O)c3ccccc3NC2c2ccc(OC)c(Cn3cc([N+](=O)[O-])cn3)c2)cc1 (stereo not given) | inconclusive: 79.4 µM [inhibitor, partial curve]
COc1ccc(Nc2ccccc2NC(=O)c2ccccc2Br)cc1 | inactive
CCS(=O)(=O)c1ncc(Cl)c(C(=O)Nc2ccc(S(=O)(=O)N3CCCC(C)C3)cc2)n1 (stereo not given) | inconclusive: 22.4 µM [inhibitor, partial curve]
O=C(CNc1cccc2ccccc12)N/N=C/c1ccc[nH]1 | inconclusive: 1.41 µM [inhibitor, full curve]
CCCN(C(=O)c1cc2ccc3cccnc3c2[nH]1)c1ccc(F)cc1 | inconclusive: 70.8 µM [inhibitor, partial curve, poor fit]
Nc1c(NCCN2CCOCC2)c2ccccc2oc1=O | inconclusive: 7.94 µM [inhibitor, full curve, poor fit]
O=C(O)c1ccc(NC(=S)NC(=O)c2ccc3ccccc3c2)cc1 | inactive

Of the compounds above, these have a carbonyl joined to an NH by a bond outside any ring.
SMILES | Potency
Nc1nc2ncc(CNc3ccc(C(=O)NC(CCC(=O)O)C(=O)O)cc3)nc2c(=O)[nH]1 (stereo not given) | inconclusive: 28.2 µM [inhibitor, partial curve, poor fit]
CCc1ccc(-c2[nH]nc3nc(-c4ccc(OC)cc4)cc(C(=O)NCCCOC)c23)cc1 | inconclusive: 79.4 µM [inhibitor, single point]
CC(=O)Nc1ccc(-n2c(CCC(=O)O)ccc2-c2ccc(Br)cc2)cc1 | inconclusive: 70.8 µM [inhibitor, partial curve]
COc1ccccc1CNC(=O)CCC(=O)n1ncc2cc(C)ccc21 | inconclusive: 17.8 µM [inhibitor, full curve, poor fit]
CCOC(=O)C1=CNS(=O)(=O)NC1c1ccc(C[C@H](NC(=O)CNC(=O)CCc2ccccc2)C(N)=O)cc1 (stereo not given in full) | inconclusive: 79.4 µM [inhibitor, single point]
Cc1ccccc1C(=O)NC(CC(C)C)C(=O)OCc1cc(=O)n2cc(Br)ccc2n1 (stereo not given) | inactive
CCCc1cc(=O)[nH]c(SCC(=O)Nc2c(C)n(C)n(-c3ccccc3)c2=O)n1 | inconclusive: 89.1 µM [inhibitor, single point]
COc1ccc(Nc2ccccc2NC(=O)c2ccccc2Br)cc1 | inactive
CCS(=O)(=O)c1ncc(Cl)c(C(=O)Nc2ccc(S(=O)(=O)N3CCCC(C)C3)cc2)n1 (stereo not given) | inconclusive: 22.4 µM [inhibitor, partial curve]
O=C(CNc1cccc2ccccc12)N/N=C/c1ccc[nH]1 | inconclusive: 1.41 µM [inhibitor, full curve]
O=C(O)c1ccc(NC(=S)NC(=O)c2ccc3ccccc3c2)cc1 | inactive

Continuation:

SMILES | Potency
NC(=O)c1ccsc1NC(=O)COC(=O)c1ccncc1 | inconclusive: 14.1 µM [inhibitor, full curve, poor fit]
Oc1ccc(Br)cc1/C=N/n1c(-c2ccccc2)n[nH]c1=S | inconclusive: 39.8 µM [inhibitor, single point]
O=C(CCCn1c(=O)c2ccccc2n(Cc2cccc(Cl)c2)c1=O)NCCc1ccc(Cl)cc1 | inconclusive: 89.1 µM [inhibitor, single point]
O=C(NCCc1ccccc1)c1cnc2sccn2c1=O | inconclusive: 39.8 µM [inhibitor, partial curve, poor fit]
CCN(Cc1nc2ccccc2c(=O)[nH]1)C(=O)COc1ccccc1-c1ccccc1 | inactive
Cc1ccc(NC2=NCC(=O)N2CCc2ccccc2)cc1C | inconclusive: 39.8 µM [inhibitor, single point]
CCN(CC)c1ccc2cc(C=O)c(=O)oc2c1 | inconclusive: 22.4 µM [inhibitor, single point]
COc1ccc(-c2nc(-c3ccccc3)nc(Cl)c2C#N)cc1 | inconclusive: 22.4 µM [inhibitor, single point]
Cc1cc(N)c2ccccc2[n+]1CCCCCCCCCC[n+]1c(C)cc(N)c2ccccc21 | inconclusive: 37.7 µM [inhibitor, single point]
CC(=O)CCc1c(C)c2cccc(C)c2[nH]c1=O | inconclusive: 70.8 µM [inhibitor, single point]
CC1=C(C(=O)OCc2ccccc2)C(c2ccc(-c3ccccc3)cc2)NC(=O)N1CCCCCC(=O)O (stereo not given) | inconclusive: 39.8 µM [inhibitor, single point]
COc1cc(C)c(CN2CCC(n3nccc3NC(=O)C3CC3)CC2)cc1C | inactive
CC(C)OC(=O)C(C(=O)C(F)(F)F)c1cc(NS(=O)(=O)c2ccc3c4c(cccc24)C(=O)N3)ccc1O (stereo not given) | inconclusive: 70.8 µM [inhibitor, single point]
CCNc1ncnc2c1nnn2C | inactive
O=C(CN1C(=O)S/C(=C\c2ccc(C(=O)O)cc2)C1=O)Nc1ccccc1 | inactive
COc1ccc2c(c1)c(C(O)CN1CCN(Cc3ccc4c(c3)OCO4)CC1)c(C)n2C (stereo not given) | inconclusive: 14.1 µM [inhibitor, partial curve, poor fit]
COc1ccc(-c2cn(CCO)c(-c3ccncc3)n2)cc1 | inactive
Cc1ccc(S(=O)(=O)NN2C(=O)c3ccccc3NC2c2ccccc2F)cc1 (stereo not given) | inconclusive: 100 µM [inhibitor, single point]
Cc1cc(C)c(C)c(OCC(=O)Nc2ccc(S(=O)(=O)Nc3nc(C)cc(C)n3)cc2)c1 | inactive
CC(C)=NNc1nc2c(c(=O)n(C)c(=O)n2C)n1C | inconclusive: 39.8 µM [inhibitor, single point]
CCOC(=O)c1c(C)oc2c(F)c(F)c(F)c(F)c2c1=O | inconclusive: 25.1 µM [inhibitor, full curve, poor fit]
CN1N=C2c3ccccc3CCCC2C1c1ccc(F)cc1 (stereo not given) | inconclusive: 79.4 µM [inhibitor, partial curve, poor fit]

SMILES | Potency
Cn1cnc([N+](=O)[O-])c1S(=O)(=O)Oc1ccccc1 | inconclusive: 28.2 µM [inhibitor, partial curve, poor fit]
O=C(NCc1ccccc1)NC1(C(=O)N2CCN(c3ncccn3)CC2)CCCCC1 | inconclusive: 100 µM [inhibitor, single point]
COc1ccc(OC)c(NC(=O)c2c(NCc3sccc3C)sc3c2CCCCC3)c1 | inconclusive: 12.6 µM [inhibitor, partial curve]
O=S(=O)(c1ccccc1)N1CCC(n2cnc3ccccc32)CC1 | inactive
CCC(C)C(=O)N1CCc2cc(-c3csc(N)n3)ccc21 (stereo not given) | inconclusive: 28.2 µM [inhibitor, single point]
Cc1ccc(/C=C2\SC(=S)N(CCCC(=O)NC3CCCC3)C2=O)cc1 | inconclusive: 89.1 µM [inhibitor, single point]
CCOC(=O)C1=C(O)/C(=C\c2cc(C)n(-c3ccccc3F)c2C)N=C1C | inconclusive: 31.6 µM [inhibitor, single point]
Cc1ccc(Cn2c(=N)c(S(=O)(=O)c3ccc(C)cc3)cc3c(=O)n4ccccc4nc32)cc1 | inconclusive: 39.8 µM [inhibitor, partial curve, poor fit]
CCC(C(=O)NC1CCCCC1)n1c2ccccc2c2nc(=O)cc(C)n21 (stereo not given) | inactive
COc1ccc(CNC(=O)CN(c2ccc(C(C)C)cc2)S(=O)(=O)c2c(C)nn(C)c2C)cc1 | inactive
CCCCC1(C)OC(=O)C(=Cc2ccc(-c3ccc(Cl)c(C(=O)O)c3)o2)C(=O)O1 (stereo not given) | inconclusive: 8.91 µM [inhibitor, partial curve, poor fit]
O=c1[nH]nnc2sc3c(c12)CCCC3 | inconclusive: 14.1 µM [inhibitor, full curve, poor fit]
c1ccc2sc(C3CCN(Cc4nnnn4Cc4ccc5c(c4)OCO5)CC3)nc2c1 | inactive
COc1cccc(C(=O)Nc2cccc(OCc3cc(=O)n4c5c(sc4n3)CCCC5)c2)c1 | inactive
O=C(Nc1ccc(OC(=O)c2ccco2)cc1)c1ccco1 | inconclusive: 44.7 µM [inhibitor, partial curve, poor fit]
CC(=O)Nc1ccc(NS(=O)(=O)c2c(C(=O)N3CCC(C)CC3)c(C)n(C)c2C)cc1 | inactive
COC(=O)c1ccccc1NC(=O)c1noc2c1CCCC2 | inactive
COc1cccc(-c2nc(S(=O)(=O)c3ccc(Cl)cc3)c(NCc3ccccc3)o2)c1 | inconclusive: 0.631 µM [inhibitor, full curve, poor fit]
COc1ccc(-c2c(C(=O)O)nc3ccccc3c2C(=O)O)cc1 | inconclusive: 89.1 µM [inhibitor, partial curve, poor fit]
Cc1ccc(/C=C/C(=O)OC(C)C(=O)NC2CCCCC2C)o1 (stereo not given) | inconclusive: 56.2 µM [inhibitor, partial curve, poor fit]
O=C(Nc1nc(=O)c2ccccc2s1)c1ccc(F)cc1 | inconclusive: 44.7 µM [inhibitor, partial curve, poor fit]
